Experimental data taken from paper doi:10.1101/2020.12.11.420943.

Experiments:
[1] = biological target: T1, XcpIp, soluble periplasmic domain of the minor pseudopilin XcpI (Pseudomonas aeruginosa) (UniProt Q00516); test: cross-linking
T1 sequence: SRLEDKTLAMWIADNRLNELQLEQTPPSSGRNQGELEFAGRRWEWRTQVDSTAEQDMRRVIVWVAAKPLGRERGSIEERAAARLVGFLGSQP

[2] = biological target: T2, XcpKp, soluble periplasmic domain of the minor pseudopilin XcpK (Pseudomonas aeruginosa) (UniProt Q00518); test: cross-linking
T2 sequence: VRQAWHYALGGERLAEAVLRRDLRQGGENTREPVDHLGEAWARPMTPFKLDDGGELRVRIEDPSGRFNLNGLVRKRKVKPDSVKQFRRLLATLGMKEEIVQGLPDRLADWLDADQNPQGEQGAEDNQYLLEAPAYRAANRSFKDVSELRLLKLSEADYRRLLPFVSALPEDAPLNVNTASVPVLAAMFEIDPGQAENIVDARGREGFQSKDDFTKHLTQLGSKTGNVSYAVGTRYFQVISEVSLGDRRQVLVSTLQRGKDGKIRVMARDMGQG

With “XcpHp, soluble periplasmic domain of the minor pseudopilin XcpH (from UniProt Q00515) (domain or fragment)” the binding [1] was “binds” and the binding [2] was “binds”.

No constants are given. Whether binding was seen depends on the method and setting. Binding can be weak; no strength is given.
